Source: PubChem BioAssay AID504444 (National Center for Advancing Translational Sciences (NCATS), 2011)
The campaign covered roughly 360,000 compounds. About 7,500 (2.1%) were called active. This list was built around the results that the source calls inconclusive (neither active nor inactive); the mix of calls is not that of the screen. Calls follow the shape of the dose curve; as a rule, active = well fitted inhibition curve with a large enough effect; inconclusive = small, poorly fitted or top-dose-only effect, or effect the other way; inactive = flat fitted curve, though single readings scatter. Potencies of inconclusive entries are doubtful fits and often do not repeat.

experiment: Nrf2 qHTS screen for inhibitors; conditions: A549 ARE-Fluc reporter, luciferase luminescence, 18-24 h; series mostly up to 46 µM; also: nearly all actives have a fitted effect of over 60% in size
Method in brief: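 A549 ARE_Fluc cells, 5000/well, 5% FBS OPTI-MEM; compounds in dose-response, 18-24 h at 37 °C/5% CO2; CellTiter-Fluor viability read (Ex 405/Em 525), then BugLite luciferase luminescence = Nrf2 activity.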
Potency is read from the fitted curve at half-maximal effect.

Row | SMILES | Potency
1 | C=CCNc1nc(Nc2ccc([N+](=O)[O-])cc2)nc(N2CCCC2)n1 | inconclusive: 14.6 µM [falling, single point]
2 | O=C1CSc2ccc(C(=O)Nc3cccc(S(=O)(=O)Nc4ccc(Br)cc4)c3)cc2N1 | inconclusive: 18.4 µM [falling, single point]
3 | COc1cc(C)c(C)cc1S(=O)(=O)N1CCCc2ccccc21 | inconclusive: 20.6 µM [falling, partial curve, poor fit]
4 | O=C(CN1C(=O)C2(SCC(=O)N2c2ccc(F)c(F)c2)c2ccccc21)NCCc1ccccc1 (centres undefined) | inconclusive: 2.59 µM [activator, full curve, poor fit]
5 | C/C(=N\NC(=O)Cc1csc(N2CCOCC2)n1)c1ccc(Cl)c(Cl)c1 | inconclusive: 29.1 µM [falling, single point]
6 | Cc1ccc(-n2[nH]c(C)c(/C=N/n3c(C)nc4ccccc4c3=O)c2=O)cc1 | inconclusive: 32.6 µM [falling, partial curve, poor fit]
7 | Clc1ccc(Cn2c3c(c4ccccc42)CCc2cc4ccccc4nc2-3)cc1 | inconclusive: 13 µM [activator, single point]
8 | CCOc1cc(C(c2c(C)[nH]n(-c3ccccc3)c2=O)c2c(C)[nH]n(-c3ccccc3)c2=O)ccc1O | inactive
9 | O=C(c1ccc(S(=O)(=O)Nc2ccc(F)cc2)cc1)N1CCN(c2ccccn2)CC1 | active: 2.91 µM
10 | Cc1ccccc1Nc1ncnc2c1cnn2-c1ccccc1 | inactive
11 | COc1ccc(N2CCN(C(=O)CSc3ncnc4scc(-c5ccc(C)cc5)c34)CC2)cc1 | inconclusive: 10.3 µM [falling, partial curve]
12 | CCN(C[C@H]1N[C@@](Cc2ccccc2)(C(=O)OC)[C@H]2C(=O)N(Cc3ccccc3)C(=O)[C@@H]12)C(=O)C1CCCCC1 | active: 14.6 µM
13 | Cc1sc2ncnc(NCC3COc4ccccc4O3)c2c1C (centres undefined) | inconclusive: 3.66 µM [falling, full curve, poor fit]
14 | O=C(Nc1ccccc1F)C(=O)Nc1cccc2ccccc12 | inconclusive: 5.17 µM [activator, partial curve]
15 | CC(C)C(=O)Nc1cc2c(cc1C(=O)c1ccccc1)OCCO2 | inconclusive: 29.1 µM [activator, single point]
16 | CS(=O)c1nc(-c2ccc(Br)cc2)cc(-c2ccccc2)c1C#N (centres undefined) | active: 14.6 µM
17 | CN1CCN(c2ccc(NC(=O)c3sc4ccccc4c3Cl)cc2)CC1 | inconclusive: 3.26 µM [activator, full curve, poor fit]
18 | O=C(Nc1nc(-c2cccs2)cs1)c1ccc(S(=O)(=O)N2CCCC2)cc1 | active: 9.2 µM
19 | COc1ccc2[nH]c(=O)c(CN(C)C(=O)C3CCCCC3)cc2c1 | inactive
20 | COc1ccc(C(=O)O)cc1S(=O)(=O)NCCN(C)C | inconclusive: 6.51 µM [falling, single point]
21 | S=C(NCc1ccco1)Nc1ccc(Cl)c(Cl)c1 | inconclusive: 23.1 µM [falling, partial curve, poor fit]
22 | COc1ccc(C(=O)Nc2ccccc2C(=O)N2CCCCC2C)cc1 (centres undefined) | inactive

From compound 6 up to 13, as listed above:
Row | SMILES | Potency
6 | Cc1ccc(-n2[nH]c(C)c(/C=N/n3c(C)nc4ccccc4c3=O)c2=O)cc1 | inconclusive: 32.6 µM [falling, partial curve, poor fit]
7 | Clc1ccc(Cn2c3c(c4ccccc42)CCc2cc4ccccc4nc2-3)cc1 | inconclusive: 13 µM [activator, single point]
8 | CCOc1cc(C(c2c(C)[nH]n(-c3ccccc3)c2=O)c2c(C)[nH]n(-c3ccccc3)c2=O)ccc1O | inactive
9 | O=C(c1ccc(S(=O)(=O)Nc2ccc(F)cc2)cc1)N1CCN(c2ccccn2)CC1 | active: 2.91 µM
10 | Cc1ccccc1Nc1ncnc2c1cnn2-c1ccccc1 | inactive
11 | COc1ccc(N2CCN(C(=O)CSc3ncnc4scc(-c5ccc(C)cc5)c34)CC2)cc1 | inconclusive: 10.3 µM [falling, partial curve]
12 | CCN(C[C@H]1N[C@@](Cc2ccccc2)(C(=O)OC)[C@H]2C(=O)N(Cc3ccccc3)C(=O)[C@@H]12)C(=O)C1CCCCC1 | active: 14.6 µM
13 | Cc1sc2ncnc(NCC3COc4ccccc4O3)c2c1C (centres undefined) | inconclusive: 3.66 µM [falling, full curve, poor fit]

Additional compounds

Row | SMILES | Potency
23 | COc1ccc(S(=O)(=O)Cc2ccc(C(=O)N3CCN(c4ccc(Cl)cc4)CC3)o2)cc1 | inconclusive: 16.4 µM [falling, single point]
24 | Cc1cccc(NC(=O)C2CCN(S(=O)(=O)c3ccc(Cl)cc3)CC2)n1 | inconclusive: 23.1 µM [falling, single point]
25 | O=C1CC(c2cccs2)Sc2nc3ccccc3n21 (centres undefined) | inconclusive: 9.2 µM [activator, partial curve]
26 | COC(=O)C1(NC(=O)CNC(=O)OCc2ccccc2)CCCC1 | inactive
27 | Cc1cc(F)ccc1NC(=O)c1csc2c1CCC(C)C2 (centres undefined) | inconclusive: 4.11 µM [activator, full curve]
28 | Cc1cc(/C=C2\SC(N)=NC2=O)c(C)n1-c1ccccc1 | inconclusive: 13 µM [activator, partial curve]
29 | COc1ccc2c(C)c(CCC(=O)NCCc3ccccc3)c(=O)oc2c1 | inconclusive: 5.8 µM [falling, partial curve]
30 | Cc1cc(Nc2ccccc2)nn1C(=O)c1ccc(Cl)cc1 | inconclusive: 29.1 µM [activator, single point]
31 | O=C1NC(=O)C(=Cc2ccccc2)N1 | inconclusive: 20.6 µM [activator, partial curve, poor fit]
32 | O=C(Nc1ccc(S(=O)(=O)NCc2ccco2)cc1)c1ccc(F)cc1 | inconclusive: 1.84 µM [falling, full curve, poor fit]
33 | COC(=O)C1=C(CS(=O)(=O)c2ccc(C)cc2C)NC(=O)NC1c1ccc(C)cc1 (centres undefined) | inactive
34 | Nn1c(SCc2ccccc2)nc2ccccc21 | inconclusive: 11.6 µM [activator, partial curve]
35 | Cc1ccc(NC(=O)n2ccc(-c3ccc(-n4ccnc4)cc3)n2)cc1 | inconclusive: 2.59 µM [activator, full curve, poor fit]
36 | Cc1cc2cc(CN(Cc3cccs3)Cc3nnnn3CC3CCCO3)c(=O)[nH]c2cc1C (centres undefined) | inconclusive: 18.4 µM [falling, single point]
37 | COc1ccc(C(=O)NCC(=O)N/N=C/c2ccc([N+](=O)[O-])s2)cc1OC | active: 25.9 µM
38 | Cc1cccc(NC(=O)CNC(=O)CN2C(=O)NC3(CCc4ccccc43)C2=O)c1C (centres undefined) | inactive
39 | Cc1c(NC(=O)C(C)C)cccc1-c1nc2ncccc2o1 | inactive
40 | COc1ccccc1CN(Cc1ccco1)S(=O)(=O)c1ccc(-n2cnnn2)c(OC)c1 | inconclusive: 23.1 µM [falling, partial curve, poor fit]
41 | Cc1nn(-c2ccccc2)c2sc(C(=O)Nc3ccc(Cl)cc3Cl)cc12 | inactive
42 | NC(=O)CSc1cn(Cc2cccc(F)c2)c2ccccc12 | inactive
43 | CSc1ccc(C(=O)N2CCC(CCC(=O)NC3CC3)CC2)cc1 | inactive
44 | C=CCn1c(-c2cccn(Cc3ccc(Cl)cc3Cl)c2=O)n[nH]c1=S | inconclusive: 20.6 µM [falling, single point]
